From article PMC11417211

Target: T1, complement protein C2 (human) (UniProt P06681)
T1 sequence: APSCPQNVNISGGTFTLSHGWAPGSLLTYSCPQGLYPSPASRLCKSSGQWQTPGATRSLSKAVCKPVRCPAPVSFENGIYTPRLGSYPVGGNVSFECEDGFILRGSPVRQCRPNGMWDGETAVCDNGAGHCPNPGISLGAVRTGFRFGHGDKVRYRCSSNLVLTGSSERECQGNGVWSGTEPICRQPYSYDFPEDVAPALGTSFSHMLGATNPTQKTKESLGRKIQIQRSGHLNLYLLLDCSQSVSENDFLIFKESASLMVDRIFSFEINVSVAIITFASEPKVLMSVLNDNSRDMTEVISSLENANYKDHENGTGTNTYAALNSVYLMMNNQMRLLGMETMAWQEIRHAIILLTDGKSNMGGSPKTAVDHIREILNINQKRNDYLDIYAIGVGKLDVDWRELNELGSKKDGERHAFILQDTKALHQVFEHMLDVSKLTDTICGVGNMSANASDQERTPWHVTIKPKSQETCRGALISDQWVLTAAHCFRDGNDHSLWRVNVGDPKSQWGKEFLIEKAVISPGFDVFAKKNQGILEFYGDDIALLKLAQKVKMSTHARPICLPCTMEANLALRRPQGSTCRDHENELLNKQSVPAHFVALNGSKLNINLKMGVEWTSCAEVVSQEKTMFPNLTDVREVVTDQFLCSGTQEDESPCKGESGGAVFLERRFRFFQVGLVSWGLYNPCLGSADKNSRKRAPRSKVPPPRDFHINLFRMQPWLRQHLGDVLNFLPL
Experiment: ELISA; complement proteins coated at 0.2 μg/well in bicarbonate/carbonate buffer; eHAMpin-1 at 1.5 μM; detected with HRP-conjugated anti-His antibody; both purified

With “E. coli expressed Hyalomma anatolicum serpin-1 (eHAMpin-1)” the binding was “no binding (tested: 1.5 μM)”.

Results are given in words; binding and its absence hold for the method and conditions named.
